PubChem BioAssay AID1053208, Peter MacCallum Cancer Centre, 2014
The whole screen tested about 17,000 reagents; shown is an unselected part. 788 of them (4.7%) count as active. 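Calls rest on z-score classes alone; an extra cut-off of viability at most 70% of control was not applied to them.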 Not all columns of the deposit are shown. Reagent sequences are not shown.

Assay: 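Synthetic lethal interactions between gene loss and doxorubicin in osteosarcoma cells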 (primary screen)
Cell system: mouse osteosarcoma cells, early-passage culture from an engineered mouse model of fibroblastic bone tumour
Reagents: siRNA pool against mouse genes, 40 nM
Timing: about 120 h (48 h before drug, then 72 h with drug)
Challenge: doxorubicin 100 nM for 72 h, roughly 30-40% inhibitory dose
Read-out: 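Viability read as ATP luminescence after 72 h of 100 nM doxorubicin or none, duplicate wells averaged, scaled to non-targeting siRNA, then expressed as robust z-scores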
Direction: viability z-score with doxorubicin: higher = more viable cells under doxorubicin; viability z-score without drug: higher = more viable cells with knock-down alone
Call rule: 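Called active if knock-down leaves viability unchanged without drug (z within -2 to 2) but lowers it with doxorubicin (z at or under -2)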

gene | combined z-score class | viability z-score with doxorubicin | viability z-score without drug | Outcome
Pcdhb4 | no change with or without drug | -1.24 | 0.84 | inactive
Dscam | no change with or without drug | -1.12 | 0.84 | inactive
Nup155 | low cell count with and without drug | -4.16 | -6.91 | inactive
Smurf1 | no change with or without drug | -1.57 | -0.17 | inactive
Cfap418 | no change with or without drug | -0.79 | 0.17 | inactive
Rgs18 | no change with or without drug | 0 | 0.67 | inactive
Zfp97 | high cell count without drug only | 1.69 | 3.04 | inactive
Coq6 | no change with or without drug | 0.34 | 0.51 | inactive
Cyb5r3 | no change with or without drug | 1.57 | -0.17 | inactive
P3h4 | low cell count with and without drug | -2.02 | -2.7 | inactive
Hgfac | no change with or without drug | -0.56 | 1.18 | inactive
Wee2 | no change with or without drug | -1.8 | -1.18 | inactive
Zfp1 | no change with or without drug | 1.01 | 0.17 | inactive
Or4c118 | high cell count with and without drug | 2.25 | 2.53 | inactive
Rbm39 | low cell count with doxorubicin only | -3.26 | -1.01 | active
Ndufs7 | low cell count without drug only | -1.57 | -2.19 | inactive
Jchain | no change with or without drug | 0.22 | 0 | inactive
H2bc18 | no change with or without drug | -0.22 | -0.17 | inactive
Ube2o | no change with or without drug | -1.35 | -0.84 | inactive
Akap4 | no change with or without drug | 0.9 | -0.34 | inactive
Isyna1 | no change with or without drug | -0.67 | -0.51 | inactive
E230025N22Rik | no change with or without drug | -1.12 | 0.51 | inactive
Tph1 | no change with or without drug | 0.67 | 0.17 | inactive
Atp5f1c | no change with or without drug | -0.45 | -1.85 | inactive
Creb3l3 | no change with or without drug | -0.67 | 1.01 | inactive
Tbc1d5 | no change with or without drug | 0.9 | 0.34 | inactive
Pigf | no change with or without drug | -1.35 | 0.17 | inactive
Pafah1b3 | no change with or without drug | 0.67 | -0.84 | inactive
Tmed4 | low cell count with doxorubicin only | -2.02 | -0.84 | active
Or2y14 | no change with or without drug | -0.9 | 0 | inactive
Mesp2 | no change with or without drug | -0.67 | 0 | inactive
Lpar6 | no change with or without drug | 0.22 | 0.34 | inactive
Dnaja2 | no change with or without drug | 1.46 | 0 | inactive
Gm9734 | no change with or without drug | 0.67 | 0.17 | inactive
